For two substances, binding results are on record in doi:10.1101/2023.09.04.556101.

Protein sequences, listed by entry. Tags and fused reporters are not part of them.
UniProt Q92826: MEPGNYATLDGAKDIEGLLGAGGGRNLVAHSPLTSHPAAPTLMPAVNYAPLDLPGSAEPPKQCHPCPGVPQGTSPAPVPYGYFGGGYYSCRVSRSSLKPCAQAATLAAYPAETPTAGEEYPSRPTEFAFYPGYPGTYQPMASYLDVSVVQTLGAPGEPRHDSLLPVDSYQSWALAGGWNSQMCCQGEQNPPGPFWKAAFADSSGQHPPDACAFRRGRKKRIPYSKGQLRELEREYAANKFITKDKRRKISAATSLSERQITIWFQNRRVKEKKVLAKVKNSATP
UniProt Q92925: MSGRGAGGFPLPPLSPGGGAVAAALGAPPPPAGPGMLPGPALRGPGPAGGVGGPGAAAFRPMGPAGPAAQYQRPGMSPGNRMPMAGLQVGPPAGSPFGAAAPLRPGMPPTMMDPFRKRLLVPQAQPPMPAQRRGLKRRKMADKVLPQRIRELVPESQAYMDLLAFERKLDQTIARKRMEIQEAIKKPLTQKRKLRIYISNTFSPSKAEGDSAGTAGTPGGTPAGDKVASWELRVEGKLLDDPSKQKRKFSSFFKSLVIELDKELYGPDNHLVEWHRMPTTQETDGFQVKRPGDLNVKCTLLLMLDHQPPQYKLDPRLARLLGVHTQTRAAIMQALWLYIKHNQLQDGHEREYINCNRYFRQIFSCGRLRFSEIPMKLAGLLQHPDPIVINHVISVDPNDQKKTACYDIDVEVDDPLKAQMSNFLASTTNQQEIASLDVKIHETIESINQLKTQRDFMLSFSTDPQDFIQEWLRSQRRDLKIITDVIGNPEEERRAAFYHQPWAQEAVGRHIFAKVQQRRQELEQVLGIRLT

For one experiment, the target named is Flag-HOXB13 (UniProt Q92826). Nature of the experiment: co-IP.
The target in experiment [1] is HOXB13 (human (endogenous in LNCaP, 22Rv1, PC3 and human prostate tissue)) (UniProt Q92826). Nature of the experiment: proximity ligation.
For another experiment, the target named is FL-HOXB13 (UniProt Q92826). Nature of the experiment: proximity ligation.
Experiment [2] deals with HOXB13 (human (endogenous in LNCaP, 22Rv1, PC3 and human prostate tissue)) (UniProt Q92826). Nature of the experiment: proximity ligation. The source holds these as a separate data set.

Where two headings read alike, the source gives them in different places. These are yes or no findings as the source states them, for the method shown. Binding seen in cells or lysates may run through a third protein. Some results given as binding are weak or reduced against the parent protein; the word gives no strength.

As to “Myc-His-SMARCD2 (from UniProt Q92925 1-531)”, the binding entry with Flag-HOXB13 was “binds”.

As to SMARCD2 (from UniProt Q92925 1-531), the binding result (in experiment [1]; in the experiment with FL-HOXB13; in experiment [2]) was “binds” each time.
